Results of single-concentration screens

By UniProt entry, the sequences of proteins in these tests, tags left out. Residues count along the entry.
UniProt P9WPC5, whole entry: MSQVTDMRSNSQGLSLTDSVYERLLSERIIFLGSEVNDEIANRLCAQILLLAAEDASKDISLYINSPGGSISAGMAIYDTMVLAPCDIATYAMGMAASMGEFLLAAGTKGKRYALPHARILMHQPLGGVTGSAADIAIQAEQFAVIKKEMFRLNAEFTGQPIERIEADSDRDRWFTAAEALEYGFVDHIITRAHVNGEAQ
UniProt P9WPC3, whole entry partner: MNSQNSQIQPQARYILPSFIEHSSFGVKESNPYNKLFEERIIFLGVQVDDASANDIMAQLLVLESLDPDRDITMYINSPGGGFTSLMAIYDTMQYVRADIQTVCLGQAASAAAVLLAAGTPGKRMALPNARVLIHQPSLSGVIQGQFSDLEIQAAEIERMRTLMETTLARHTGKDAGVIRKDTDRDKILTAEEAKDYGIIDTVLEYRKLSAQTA
UniProt I6X8D2, whole entry: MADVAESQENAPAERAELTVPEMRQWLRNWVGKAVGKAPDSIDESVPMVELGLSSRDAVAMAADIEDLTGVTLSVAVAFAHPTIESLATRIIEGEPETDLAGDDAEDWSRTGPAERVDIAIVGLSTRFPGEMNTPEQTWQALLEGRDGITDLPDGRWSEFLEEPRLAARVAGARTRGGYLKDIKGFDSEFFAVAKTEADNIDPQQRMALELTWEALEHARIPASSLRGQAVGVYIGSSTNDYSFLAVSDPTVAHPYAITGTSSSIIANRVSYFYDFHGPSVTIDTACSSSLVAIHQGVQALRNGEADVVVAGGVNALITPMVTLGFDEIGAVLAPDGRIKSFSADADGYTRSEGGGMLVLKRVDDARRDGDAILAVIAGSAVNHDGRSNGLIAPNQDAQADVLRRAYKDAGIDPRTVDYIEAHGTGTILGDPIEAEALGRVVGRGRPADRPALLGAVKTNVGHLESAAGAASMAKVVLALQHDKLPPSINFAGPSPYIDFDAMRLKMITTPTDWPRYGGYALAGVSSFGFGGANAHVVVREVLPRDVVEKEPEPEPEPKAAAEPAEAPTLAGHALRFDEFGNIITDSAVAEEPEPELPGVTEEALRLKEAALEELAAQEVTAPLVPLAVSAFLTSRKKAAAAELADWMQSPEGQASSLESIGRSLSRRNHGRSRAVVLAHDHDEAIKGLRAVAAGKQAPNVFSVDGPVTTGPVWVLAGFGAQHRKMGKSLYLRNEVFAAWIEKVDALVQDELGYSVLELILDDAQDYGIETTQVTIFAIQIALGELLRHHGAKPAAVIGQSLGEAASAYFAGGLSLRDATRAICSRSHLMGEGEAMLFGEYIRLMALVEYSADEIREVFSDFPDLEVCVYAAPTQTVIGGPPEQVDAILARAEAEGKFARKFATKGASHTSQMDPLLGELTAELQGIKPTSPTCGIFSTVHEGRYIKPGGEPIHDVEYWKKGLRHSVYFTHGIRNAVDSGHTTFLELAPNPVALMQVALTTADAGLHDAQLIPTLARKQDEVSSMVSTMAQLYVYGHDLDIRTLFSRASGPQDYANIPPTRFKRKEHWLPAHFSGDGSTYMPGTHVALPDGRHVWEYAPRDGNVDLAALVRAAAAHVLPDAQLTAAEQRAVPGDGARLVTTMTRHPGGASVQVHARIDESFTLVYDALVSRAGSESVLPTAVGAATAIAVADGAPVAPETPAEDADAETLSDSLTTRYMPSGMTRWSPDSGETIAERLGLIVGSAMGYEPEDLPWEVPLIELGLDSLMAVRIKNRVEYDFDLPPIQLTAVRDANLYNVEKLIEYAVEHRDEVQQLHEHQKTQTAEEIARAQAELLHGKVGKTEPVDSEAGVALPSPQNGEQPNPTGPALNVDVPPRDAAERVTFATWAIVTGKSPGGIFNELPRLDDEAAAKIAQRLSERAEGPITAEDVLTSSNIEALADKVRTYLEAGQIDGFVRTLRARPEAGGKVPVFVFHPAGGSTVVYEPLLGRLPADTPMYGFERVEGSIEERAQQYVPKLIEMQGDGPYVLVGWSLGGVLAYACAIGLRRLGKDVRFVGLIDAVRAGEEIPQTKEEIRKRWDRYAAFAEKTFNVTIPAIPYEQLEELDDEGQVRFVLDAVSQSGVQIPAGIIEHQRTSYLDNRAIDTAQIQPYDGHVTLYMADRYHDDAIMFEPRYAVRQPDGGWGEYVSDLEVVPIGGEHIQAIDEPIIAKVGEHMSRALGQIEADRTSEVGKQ
UniProt P9WNZ1, whole entry: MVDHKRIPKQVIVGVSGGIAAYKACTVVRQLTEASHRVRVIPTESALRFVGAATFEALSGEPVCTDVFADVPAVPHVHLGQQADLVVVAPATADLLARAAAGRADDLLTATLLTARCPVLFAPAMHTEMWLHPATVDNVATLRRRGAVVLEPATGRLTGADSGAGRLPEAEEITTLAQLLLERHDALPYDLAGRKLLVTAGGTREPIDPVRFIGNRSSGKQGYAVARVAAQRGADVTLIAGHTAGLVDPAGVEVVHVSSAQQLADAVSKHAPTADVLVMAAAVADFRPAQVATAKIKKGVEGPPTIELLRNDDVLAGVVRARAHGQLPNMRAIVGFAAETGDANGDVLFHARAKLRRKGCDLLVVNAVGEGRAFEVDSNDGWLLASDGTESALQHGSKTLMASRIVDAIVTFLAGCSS
UniProt A4I591, 1-473: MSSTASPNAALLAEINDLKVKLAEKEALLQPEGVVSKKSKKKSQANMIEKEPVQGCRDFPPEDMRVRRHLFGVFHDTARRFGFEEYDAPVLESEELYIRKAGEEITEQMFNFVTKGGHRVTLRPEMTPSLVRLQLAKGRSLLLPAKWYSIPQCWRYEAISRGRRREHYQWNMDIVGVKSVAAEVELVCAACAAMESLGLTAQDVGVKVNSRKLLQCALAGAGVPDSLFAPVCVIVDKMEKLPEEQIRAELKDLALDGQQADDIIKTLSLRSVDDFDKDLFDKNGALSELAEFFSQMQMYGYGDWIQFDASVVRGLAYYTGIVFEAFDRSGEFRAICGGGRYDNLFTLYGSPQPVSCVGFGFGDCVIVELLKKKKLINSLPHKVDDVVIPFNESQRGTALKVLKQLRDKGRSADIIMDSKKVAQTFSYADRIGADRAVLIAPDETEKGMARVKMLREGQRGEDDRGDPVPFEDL
UniProt Q4DA54, 1-478: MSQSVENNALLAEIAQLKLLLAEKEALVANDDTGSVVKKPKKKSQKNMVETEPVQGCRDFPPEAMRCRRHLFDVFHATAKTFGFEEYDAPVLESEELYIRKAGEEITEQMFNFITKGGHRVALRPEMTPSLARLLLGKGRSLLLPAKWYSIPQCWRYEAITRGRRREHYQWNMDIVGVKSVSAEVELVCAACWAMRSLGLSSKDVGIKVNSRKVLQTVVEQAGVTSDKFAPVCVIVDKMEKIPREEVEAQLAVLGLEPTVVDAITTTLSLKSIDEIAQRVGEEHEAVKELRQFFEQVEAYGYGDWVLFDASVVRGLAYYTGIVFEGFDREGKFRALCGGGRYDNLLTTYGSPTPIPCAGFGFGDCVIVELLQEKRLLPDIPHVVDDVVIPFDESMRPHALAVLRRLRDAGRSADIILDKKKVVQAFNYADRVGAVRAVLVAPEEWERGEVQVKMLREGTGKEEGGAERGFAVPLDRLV

Measurements from “University of Dundee, Small-Polar-MMV Screening Library” (2021), ChEMBL document CHEMBL3988442.

ClpP1P2: 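Protease assay of ClpP1P2, read by the AMC dye that it sets free. Target: ClpP1P2, Mycobacterium tuberculosis (UniProt P9WPC5 and UniProt P9WPC3). Compounds at 50 µM. Higher reads as stronger inhibition, judged from the few compounds that gave an IC50. Most other retested compounds had strongly negative values. Of about 69,000 compounds tested this way, about 10 (0.015%) reached 50% or more in at least one test.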
Pks13 thioesterase: 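Polyketide synthase Pks13, Mycobacterium tuberculosis (UniProt I6X8D2). Enzyme assay of the thioesterase domain of polyketide synthase 13; the read-out is not stated. Concentration: 30 µM. Higher reads as stronger inhibition (inferred from which compounds were picked for retests). Size under these conditions: about 67,000 compounds, about 300 of them at 50% or above in at least one test.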
CoaBC: 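Enzyme assay of CoaBC with a phosphate dye (Biomol Green) read at 650 nm. Target: Coenzyme A biosynthesis protein CoaBC, Mycobacterium tuberculosis (UniProt P9WNZ1). Compounds at 30 µM. Direction is inferred from only a few compounds that gave an IC50; most scored high, so higher reads as stronger inhibition. Most strong results did not repeat in a second test. Of about 67,000 compounds tested this way, about 40 (0.06%) reached 50% or more in at least one test.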
LiHisRS: 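Histidine-tRNA ligase, Leishmania infantum (UniProt A4I591). Enzyme assay of histidyl-tRNA synthetase; the read-out is not stated. Tested at 30 µM. Higher reads as stronger inhibition (inferred: compounds with an IC50 in retests scored well above the rest). The assay is labelled LdHisRS but filed under L. infantum. About 69,000 compounds were tested under these conditions; 0.6% (about 410) showed 50% or more at least once.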
TcHisRS: 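Enzyme assay of histidyl-tRNA synthetase; the read-out is not stated. Target: Histidine-tRNA ligase, Trypanosoma cruzi CL Brener (UniProt Q4DA54). Tested at 30 µM. Higher reads as stronger inhibition (inferred: compounds with an IC50 in retests scored well above the rest). Size under these conditions: about 69,000 compounds, about 31 of them at 50% or above in at least one test.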

The filed quantity is “Percent Effect” (%).
How 0% and 100% were set is not recorded. Most values in the screen are low, and negative values occur.
Compounds were drawn at random from those tested, without regard to their results.

Result for CN(C)[C@@H]1C[C@@H](CO)N(C(=O)Nc2cccc(F)c2F)C1 was ClpP1P2: 13.68%; Pks13 thioesterase: -4.382%; CoaBC: -1.077%; LiHisRS: 3.279%; TcHisRS: 3.863%. For CCC(C)NS(=O)(=O)c1ccc(/C=C\c2onc(C)c2NC(C)=O)cc1 (centres undefined) the result was ClpP1P2: -0.7665%; Pks13 thioesterase: 41.91%; CoaBC: -6.719%; LiHisRS: 5.479%; TcHisRS: 3%. c1ccc2c(c1)SCCC2NCc1ccc(N2CCOCC2)cc1 (centres undefined) gave ClpP1P2: 4.418%; Pks13 thioesterase: -9.638%; CoaBC: 5.055%; LiHisRS: 14.29%; TcHisRS: 10.31%. Result for CCn1cc(C(=O)Nc2cc(C)ccc2C)cn1 was ClpP1P2: 19.8%; Pks13 thioesterase: -11.68%; CoaBC: 2.685%; LiHisRS: 17.24%; TcHisRS: 6.186%.

Cc1cnc(N2CCCC(c3ccccc3)C2)nc1-c1ccnn1C (centres undefined) gave ClpP1P2: -12.84%; Pks13 thioesterase: -47.59%; CoaBC: 11.35%; LiHisRS: 11.67%; TcHisRS: 7.955%. For C[S+]([O-])c1ccc(NC(=O)CC2=CCCCC2)cc1 (centres undefined) the result was ClpP1P2: -7.146%; CoaBC: 0.4274%; LiHisRS: 17.09%; TcHisRS: 8.108%. For COc1cc(F)c(C(=O)N2C[C@@H](CN(C)CCO)[C@@H](CO)C2)c(F)c1 the result was ClpP1P2: -18.73%; Pks13 thioesterase: -37.64%; CoaBC: 2.303%; LiHisRS: 17.74%; TcHisRS: 5.102%. For CCCc1cnc(C)nc1N1CCC2(CC1)CNC(=O)O2 the result was ClpP1P2: 6.874%; Pks13 thioesterase: -28.34%; CoaBC: 1.518%; LiHisRS: 25%; TcHisRS: 0%.

With CCOc1ncccc1CNC(=O)c1c(C)oc(C)c1C the screen gave ClpP1P2: -27.47%; Pks13 thioesterase: -7.461%; CoaBC: 7.928%; LiHisRS: 14.68%; TcHisRS: 4.118%. CC(NC(=O)N(C)Cc1ccncc1)c1nncn1C (centres undefined) read ClpP1P2: -2.437%; Pks13 thioesterase: -14.17%; CoaBC: 4.219%; LiHisRS: 14.42%; TcHisRS: -1.626%. Result for Cc1cc(C(=O)NC2CCc3nc(C)cn3C2)[nH]n1 (centres undefined) was ClpP1P2: -0.3981%; Pks13 thioesterase: -11.44%; CoaBC: 4.302%; LiHisRS: 12.16%; TcHisRS: 0.3774%. Cc1nc(C)n(CC2CCCCN2CC(=O)Nc2nnc(C)s2)n1 (centres undefined) gave ClpP1P2: -23.58%; Pks13 thioesterase: -12.66%; CoaBC: 0.2273%; LiHisRS: 7.143%; TcHisRS: 5.187%.

Result for COc1ccc(C(=O)NCCNC(=O)c2cncnc2C)cc1 was ClpP1P2: 2.543%; Pks13 thioesterase: -35.6%; CoaBC: 1.518%; LiHisRS: 21.88%; TcHisRS: 0%. Result for CC(C)(C)Nc1c(C2CCN(C(=O)C(C)(C)C)CC2)nc2ccccn12 was ClpP1P2: -13.96%; Pks13 thioesterase: -13.31%; CoaBC: 8.138%; LiHisRS: 5.634%; TcHisRS: 8.333%.

2 of the entries, repeated:

Compound,ClpP1P2,Pks13 thioesterase,CoaBC,LiHisRS,TcHisRS
Cc1cnc(N2CCCC(c3ccccc3)C2)nc1-c1ccnn1C (centres undefined),-12.84,-47.59,11.35,11.67,7.955
CCOc1ncccc1CNC(=O)c1c(C)oc(C)c1C,-27.47,-7.461,7.928,14.68,4.118